# Laboratory results from the supplement of paper PMC4604168 (melanoma cell lines).
# The list shows a part of the results. Many values rest on one well or one pass, so single values are uncertain.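 Cells were imaged in 1,536-well plates, and nuclei stained with an antibody against cleaved PARP were counted against all DNA-stained nuclei to give the apoptosis fraction. Screening doses were chosen to leave most cells alive, and resting and induced cleaved-PARP levels differ strongly between cell lines.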
# Columns and labels:
# Assay in all cases: cleaved PARP positive nuclei fraction relative to DMSO control; melanoma cells; higher = more apoptosis
# Details in all cases: library dose: low library concentration; 72 h
# MZ2-MEL = tested on: MZ2-MEL
# MeWo = tested on: MeWo
# RPMI7951 = tested on: RPMI7951
# RVH-421 = tested on: RVH-421
# SkMel28 = tested on: SkMel28
# SkMel2 = tested on: SkMel2
# SkMel30 = tested on: SkMel30
# SkMel5 = tested on: SkMel5
# UACC257 = tested on: UACC257
# UACC62 = tested on: UACC62
# WM115 = tested on: WM115
# WM1716 = tested on: WM1716
# WM1745 = tested on: WM1745
# WM3526 = tested on: WM3526
# WM3619 = tested on: WM3619
# WM451Lu = tested on: WM451Lu
SMILES,cleaved PARP positive nuclei fraction (MZ2-MEL),cleaved PARP positive nuclei fraction (MeWo),cleaved PARP positive nuclei fraction (RPMI7951),cleaved PARP positive nuclei fraction (RVH-421),cleaved PARP positive nuclei fraction (SkMel28),cleaved PARP positive nuclei fraction (SkMel2),cleaved PARP positive nuclei fraction (SkMel30),cleaved PARP positive nuclei fraction (SkMel5),cleaved PARP positive nuclei fraction (UACC257),cleaved PARP positive nuclei fraction (UACC62),cleaved PARP positive nuclei fraction (WM115),cleaved PARP positive nuclei fraction (WM1716),cleaved PARP positive nuclei fraction (WM1745),cleaved PARP positive nuclei fraction (WM3526),cleaved PARP positive nuclei fraction (WM3619),cleaved PARP positive nuclei fraction (WM451Lu)
"CS(=O)(=O)CCNCc1ccc(-c2ccc3ncnc(Nc4ccc(OCc5cccc(F)c5)c(Cl)c4)c3c2)o1 [lapatinib] + Cn1cc(/C=C2\C(=O)Nc3cccnc32)c2ccccc21 [GW441756] (first compound 0.8 µM, partner dose 0.4 µM)",234%,122%,74%,132%,138%,32.2%,57.2%,104%,298%,86.2%,107%,25.4%,86%,23.2%,74.6%,109%
"CC(C)C[C@H](NC(=O)[C@H](Cc1ccccc1)NC(=O)c1cnccn1)B(O)O [Bortezomib] + NC(=O)Nc1cc(-c2cccc(F)c2)sc1C(=O)N[C@H]1CCCNC1 [AZD7762] (first compound 0.001 µM, partner dose 0.02 µM)",91.1%,119%,72.2%,53.5%,56.1%,105%,58.2%,32.8%,15.2%,79.4%,102%,642%,189%,64.1%,387%,60.6%
"C[C@@H](Oc1cc(-c2cnn(C3CCNCC3)c2)cnc1N)c1c(Cl)ccc(F)c1Cl [Crizotinib] + COc1cc(N2CCC(N3CCN(C)CC3)CC2)ccc1Nc1ncc(Cl)c(Nc2ccccc2S(=O)(=O)C(C)C)n1 [NVP-TAE684] (first compound 0.2 µM, partner dose 0.08 µM)",79.7%,179%,36.7%,231%,204%,71.6%,67.4%,93.7%,220%,89.7%,79.6%,42.1%,99.3%,53.3%,66%,112%
"C=C(c1ccc(C(=O)O)cc1)c1cc2c(cc1C)C(C)(C)CCC2(C)C [Bexarotene] + O=C(O)c1ccc(-c2c[nH]c3ncc(-c4ccccc4)cc23)cc1C1CCCC1 [GSK650394] (first compound 2 µM, partner dose 0.16 µM)",57.9%,46.5%,172%,74%,72.8%,59.9%,119%,148%,68.9%,48.8%,66.2%,54.2%,94.3%,69.2%,92%,81.2%
"O=C(O)[C@@H]1[O][Sb](=[O])([O][Sb]2(=[O])[O][C@H]([C@H](O)CO)[C@H](O)[C@H](C(=O)O)[O]2)[O][C@H]([C@H](O)CO)[C@@H]1O (some centres undefined) [stibogluconate] + CCc1ccc(CCOc2ccc(CC3SC(=O)NC3=O)cc2)nc1 [pioglitazone] (first compound 2 µM, partner dose 2 µM)",89.2%,26.2%,65.3%,215%,129%,112%,20.1%,130%,104%,58.3%,84.4%,104%,183%,76.9%,94.4%,41.1%
"CNC(=O)c1cc(Oc2ccc(NC(=O)Nc3ccc(Cl)c(C(F)(F)F)c3)cc2)ccn1 [sorafenib] + Cn1cncc1[C@@](N)(c1ccc(Cl)cc1)c1ccc2c(c1)c(-c1cccc(Cl)c1)cc(=O)n2C [tipifarnib] (first compound 0.4 µM, partner dose 0.01 µM)",104%,111%,49%,102%,85.4%,156%,165%,59.2%,156%,125%,85%,31%,100%,1180%,83.5%,381%
"CCCS(=O)(=O)Nc1ccc(F)c(C(=O)c2c[nH]c3ncc(Cl)cc23)c1F + C[C@@H]1CCN(C(=O)CC#N)C[C@@H]1N(C)c1ncnc2[nH]ccc12 [CP690550] (first compound 0.08 µM, partner dose 1 µM)",83.3%,74.4%,90.2%,45.4%,75.1%,124%,220%,31.4%,113%,506%,83.8%,108%,105%,129%,101%,76.7%
"Nc1ccn([C@@H]2O[C@H](CO)[C@@H](O)C2(F)F)c(=O)n1 [gemcitabine] + O=C(O)c1ccc(-c2c[nH]c3ncc(-c4ccccc4)cc23)cc1C1CCCC1 [GSK650394] (first compound 0.0004 µM, partner dose 0.16 µM)",190%,85.4%,178%,64.2%,91.8%,106%,46%,25%,54.2%,25.9%,39.6%,71.1%,228%,77.5%,133%,24.4%
"C[C@@H](Oc1cc(-c2cnn(C3CCNCC3)c2)cnc1N)c1c(Cl)ccc(F)c1Cl [Crizotinib] + Cn1cc(/C=C2\C(=O)Nc3cccnc32)c2ccccc21 [GW441756] (first compound 0.2 µM, partner dose 0.4 µM)",88.6%,83.8%,181%,66.1%,227%,46.9%,49.1%,80.9%,36.9%,130%,35.9%,110%,83.7%,34.6%,79.9%,98.9%
"Nc1ncn([C@H]2C[C@H](O)[C@@H](CO)O2)c(=O)n1 [decitabine] + COc1ccc2c(c1)CCC1C2CCC2(C)C(NCCCCCCN3C(=O)C=CC3=O)CCC12 [U73122] (first compound 0.1 µM, partner dose 0.4 µM)",145%,140%,75.3%,1080%,99.3%,221%,47.2%,72.2%,81.7%,136%,151%,57.7%,192%,72.4%,63.8%,52.3%
"CCCS(=O)(=O)Nc1ccc(F)c(C(=O)c2c[nH]c3ncc(Cl)cc23)c1F + O=C1NC(=O)/C(=C/c2ccc(-c3ccc(F)cc3O)o2)S1 [AS252424] (first compound 0.08 µM, partner dose 1 µM)",126%,203%,114%,245%,93.4%,151%,68.4%,67.5%,379%,232%,103%,89%,105%,103%,125%,65.5%
"Nc1ccn([C@@H]2O[C@H](CO)[C@@H](O)C2(F)F)c(=O)n1 [gemcitabine] + O=C(Nc1cccc(Cl)c1)Nc1ncc(CCNc2ncnc3ccsc23)s1 [SNS314] (first compound 0.0004 µM, partner dose 0.0008 µM)",186%,111%,33.1%,48.1%,230%,90.3%,58.1%,32.1%,121%,121%,188%,28.5%,170%,67.6%,115%,58.9%
"O=C(O)[C@@H]1[O][Sb](=[O])([O][Sb]2(=[O])[O][C@H]([C@H](O)CO)[C@H](O)[C@H](C(=O)O)[O]2)[O][C@H]([C@H](O)CO)[C@@H]1O (some centres undefined) [stibogluconate] + CO[C@@H]1[C@H](N(C)C(=O)c2ccccc2)C[C@H]2O[C@]1(C)n1c3ccccc3c3c4c(c5c6ccccc6n2c5c31)C(=O)NC4 [Midostaurin] (first compound 2 µM, partner dose 0.08 µM)",40.1%,170%,237%,70.7%,31%,140%,53.1%,32.3%,57.4%,60.7%,163%,94.1%,102%,71.3%,86.9%,49.1%
"O=C(O)[C@@H]1[O][Sb](=[O])([O][Sb]2(=[O])[O][C@H]([C@H](O)CO)[C@H](O)[C@H](C(=O)O)[O]2)[O][C@H]([C@H](O)CO)[C@@H]1O (some centres undefined) [stibogluconate] + CN(C)S(=O)(=O)c1ccc2c(c1)/C(=C/c1cc3c([nH]1)CCCC3)C(=O)N2 [SU6656] (first compound 2 µM, partner dose 0.4 µM)",153%,51.3%,50.9%,66.2%,84.1%,48.4%,59%,49.7%,133%,50.9%,36.1%,70.6%,97.3%,54%,71.6%,22.3%

# As entered above:
# CNC(=O)c1cc(Oc2ccc(NC(=O)Nc3ccc(Cl)c(C(F)(F)F)c3)cc2)ccn1 [sorafenib] + Cn1cncc1[C@@](N)(c1ccc(Cl)cc1)c1ccc2c(c1)c(-c1cccc(Cl)c1)cc(=O)n2C [tipifarnib] (first compound 0.4 µM, partner dose 0.01 µM) – cleaved PARP positive nuclei fraction (RVH-421): 102%
# Nc1ncn([C@H]2C[C@H](O)[C@@H](CO)O2)c(=O)n1 [decitabine] + COc1ccc2c(c1)CCC1C2CCC2(C)C(NCCCCCCN3C(=O)C=CC3=O)CCC12 [U73122] (first compound 0.1 µM, partner dose 0.4 µM) – cleaved PARP positive nuclei fraction (WM3619): 63.8%
